Test results from patent publication US20040058366, “Novel clock gene bmal2” (published 2004).

Chains of the proteins cited; added tags and fusions are not shown. Chains listed by the source or under a name are the forms on record and can include a tag or linker.
cBMAL2-cCLOCK heterodimer (Gallus gallus), one chain, as listed by the source, chain 1 of 2: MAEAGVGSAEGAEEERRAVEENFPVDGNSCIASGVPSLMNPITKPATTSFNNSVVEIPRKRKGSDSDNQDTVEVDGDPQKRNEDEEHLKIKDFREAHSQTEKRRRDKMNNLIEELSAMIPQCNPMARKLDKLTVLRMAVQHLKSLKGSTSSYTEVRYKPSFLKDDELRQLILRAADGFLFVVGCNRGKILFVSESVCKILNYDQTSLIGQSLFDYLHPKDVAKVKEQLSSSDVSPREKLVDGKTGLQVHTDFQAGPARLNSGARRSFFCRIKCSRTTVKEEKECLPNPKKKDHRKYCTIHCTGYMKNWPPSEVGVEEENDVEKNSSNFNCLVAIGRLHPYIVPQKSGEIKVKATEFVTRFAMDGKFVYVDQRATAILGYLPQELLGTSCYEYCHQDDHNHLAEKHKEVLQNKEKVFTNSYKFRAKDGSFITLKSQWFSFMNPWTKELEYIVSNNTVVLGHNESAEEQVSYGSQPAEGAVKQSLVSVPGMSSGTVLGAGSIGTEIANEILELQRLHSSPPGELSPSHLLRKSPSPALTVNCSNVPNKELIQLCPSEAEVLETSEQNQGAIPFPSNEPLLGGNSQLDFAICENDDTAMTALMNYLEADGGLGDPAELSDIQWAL
cBMAL1-cCLOCK heterodimer (Gallus gallus), one chain, as listed by the source, chain 1 of 2: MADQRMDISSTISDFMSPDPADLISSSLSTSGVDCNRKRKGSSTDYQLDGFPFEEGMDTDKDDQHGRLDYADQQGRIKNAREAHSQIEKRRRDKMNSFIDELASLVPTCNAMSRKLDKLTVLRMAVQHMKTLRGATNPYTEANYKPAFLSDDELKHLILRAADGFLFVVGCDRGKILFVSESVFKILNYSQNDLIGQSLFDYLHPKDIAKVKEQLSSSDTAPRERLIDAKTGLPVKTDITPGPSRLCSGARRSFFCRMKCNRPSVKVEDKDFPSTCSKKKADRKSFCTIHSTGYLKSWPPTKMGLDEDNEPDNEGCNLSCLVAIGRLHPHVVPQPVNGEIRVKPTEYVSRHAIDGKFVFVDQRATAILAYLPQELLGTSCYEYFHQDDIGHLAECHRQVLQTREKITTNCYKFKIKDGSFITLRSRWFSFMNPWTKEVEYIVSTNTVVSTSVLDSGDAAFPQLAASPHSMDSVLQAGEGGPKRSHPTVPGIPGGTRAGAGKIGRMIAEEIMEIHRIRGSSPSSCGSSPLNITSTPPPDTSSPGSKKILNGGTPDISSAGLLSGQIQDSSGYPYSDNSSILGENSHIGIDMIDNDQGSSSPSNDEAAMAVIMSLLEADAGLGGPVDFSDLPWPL
cBMAL1-cCLOCK heterodimer (Gallus gallus), one chain, as listed by the source, chain 2 of 2: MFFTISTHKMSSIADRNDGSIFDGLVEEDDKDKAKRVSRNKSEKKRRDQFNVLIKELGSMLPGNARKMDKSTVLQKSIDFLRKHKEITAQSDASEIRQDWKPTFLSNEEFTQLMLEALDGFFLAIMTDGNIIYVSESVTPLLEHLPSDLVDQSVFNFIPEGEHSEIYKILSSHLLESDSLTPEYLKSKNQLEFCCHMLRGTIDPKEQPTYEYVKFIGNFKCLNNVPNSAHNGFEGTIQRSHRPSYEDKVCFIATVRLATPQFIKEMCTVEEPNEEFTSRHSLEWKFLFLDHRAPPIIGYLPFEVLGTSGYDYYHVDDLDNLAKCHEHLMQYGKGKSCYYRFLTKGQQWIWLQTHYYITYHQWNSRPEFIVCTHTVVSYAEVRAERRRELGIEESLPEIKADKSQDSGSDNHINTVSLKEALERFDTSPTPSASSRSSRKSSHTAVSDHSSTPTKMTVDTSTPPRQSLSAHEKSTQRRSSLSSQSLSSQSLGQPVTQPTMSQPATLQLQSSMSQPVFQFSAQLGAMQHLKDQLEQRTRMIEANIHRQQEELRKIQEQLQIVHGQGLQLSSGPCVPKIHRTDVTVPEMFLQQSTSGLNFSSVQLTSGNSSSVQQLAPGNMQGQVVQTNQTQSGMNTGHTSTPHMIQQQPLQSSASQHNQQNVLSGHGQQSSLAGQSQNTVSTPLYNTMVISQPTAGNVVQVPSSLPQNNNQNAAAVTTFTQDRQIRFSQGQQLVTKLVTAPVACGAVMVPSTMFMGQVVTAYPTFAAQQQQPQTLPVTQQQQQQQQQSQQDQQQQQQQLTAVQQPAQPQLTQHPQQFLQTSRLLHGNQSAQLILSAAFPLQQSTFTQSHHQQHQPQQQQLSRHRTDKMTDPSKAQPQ

What was measured:
[1] = system: cBMAL1-cCLOCK heterodimer (Gallus gallus); assay: activity in cells; conditions: protein in cells, protein details: expressed in 293EBNA cells, only the site is given
[2] = system: cBMAL2-cCLOCK heterodimer (Gallus gallus); assay: activity in cells; conditions: protein in cells, protein details: expressed in 293EBNA cells, only the site is given
[3] = luciferase transactivation in 293EBNA cells

In the case of “GTGTCACACGTGAGGCTTAGTGTCACACGTGAGGCTTAGTGTCACACGTGAGGCTTA (double strand) [cPer2 E-box-luc (3 tandem copies)]”, the “activity on this sequence” value [1, 3] is reported as “active” and the “activity on this sequence” value [2, 3] is reported as “active”.

“TCAGGCCCACGTGTCCCA (double strand) [mouse vasopressin E-box-luc]” was tested, and the “activity on this sequence” value ([1]; transactivation enhanced by 10 ng cBmal2 plasmid) was “active” and the “activity on this sequence” value ([2]; transactivation suppressed at high cBmal2 dose) was “active”.
